Test [1] can be described thus: NCATS anti-infectives library activity on the primary C. elegans qHTS viability assay (AID 1745855). Conditions: C. elegans worm area imaging. Summed up:
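Titration-based screen in worms: eggs hatched overnight in M9, L1 larvae fed TOP10 capsules in S medium with compound, incubated 21 °C for 7 days; fluorescent objects gated by size and intensity at days 0, 3 and 7.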

Test [2] can be described thus: qHTS drug screen for cell cycle checkpoint inhibitors in PARPi-resistant BRCA-mutant ovarian cancer cell lines. (AID 1963452). To be noted: PEO1/OlaR viability, CellTiter-Glo luminescence, 96 h. Summed up:
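PEO1, PEO4 and PEO1/OlaR ovarian cancer cells, 600 per well, exposed 96 h at 37C to a dilution series. Viability read by CellTiter-Glo luminescence, normalized to DMSO and empty wells; activity summarized as Z-AUC.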
In general terms: qHTS replaces the single test concentration by a dilution series.

A short description of test [3]: qHTS for identification of novel therapeutic agents for treatment of microphthalmiaassociated transcription factor (MiT) renal cell carcinoma (RCC) (AID 1963991). To be noted: CellTiter-Glo, 48 h; for z-score: stronger effect = lower value. Summed up: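 Three TFE3-fusion RCC lines (UOK109, UOK124, UOK145), 500 cells/well in complete medium, were treated with MIPE 4.0 compounds for 48 hours at 37 C. Viability was by CellTiter-Glo luminescence, normalized to DMSO (100%) and empty wells (0%); curves fitted over 11 concentrations.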

The mark [4] stands for this setting: day 7, measured here: worm number, day 3.
The mark [5] stands for this setting: measured here: PEO1 parental viability.
The mark [6] stands for this setting: day 7, measured here: worm number.
[7] abbreviates: day 7, measured here: worm area, day 3.
[8] abbreviates: TFE3-RCC viability, measured here: UOK124 cell viability.
Where [9] appears, read: TFE3-RCC viability, measured here: UOK145 cell viability.
The mark [10] stands for this setting: TFE3-RCC UOK109 viability, measured here: UOK109 Z-AUC.
Where [11] appears, read: TFE3-RCC viability, measured here: UOK124 Z-AUC.
The mark [12] stands for this setting: TFE3-RCC viability, measured here: UOK145 Z-AUC.

Structures are written as SMILES. Some of the results follow. Shown are side measurements of this screen, not its main read-out; they come without a call. For some assays here: Compounds called inactive in the main read-out are mostly missing here. Potencies come from curve fits of mixed quality, noted in brackets.

Consider `CCOCc1nc2c(N)nc3ccccc3c2n1CC(C)(C)O`, for which the AC50 (in general, the concentration giving half of the maximal activity seen) was 145 nM [falling, partial curve, poor fit] in test [1] (setting [4]) and 8710 nM [rising, partial curve, poor fit] in test [2] (setting [5]).
As for `O=C(/C=C\n1cnc(-c2cc(C(F)(F)F)cc(C(F)(F)F)c2)n1)NNc1ccccn1`, the AC50 in test [1] (setting [6]) is 25800 nM [falling, single point]; in test [1] (setting [7]), 3250 nM [falling, full curve, poor fit]; in test [2] (setting [5]), 871 nM [falling, full curve]; in test [2] (measured here: PEO4 viability) it was 977 nM [falling, full curve].
Turning to `CC(C)C[C@H](NC(=O)[C@@H](NC(=O)c1cccc(-c2ccccc2)n1)[C@@H](C)O)B(O)O`, the AC50 in test [1] (setting [6]) is 258 nM [falling, full curve, poor fit]; in test [1] (setting [7]), 145 nM [falling, full curve, poor fit]; in test [2] (setting [5]), 30.1 nM [falling, full curve]; in test [2] (measured here: PEO4 viability) it was 9.5 nM [falling, full curve]; in test [3] (setting [8]), 209 nM [falling, full curve]; in test [3] (setting [9]), 46.9 nM [falling, full curve].
Turning to `COc1ccc2ccc(=O)oc2c1CC=C(C)C`, the AC50 is 1150 nM [rising, full curve, poor fit] in test [1] (setting [7]); 290 nM [rising, full curve, poor fit] in test [1] (setting [4]); 9350 nM [falling, full curve] in test [3] (setting [9]). The z-score in test [3] (setting [10]) stood at 0.992; in test [3] (setting [11]), 0.427; in test [3] (setting [12]) it was 1.36.
For the compound `COc1ccc(-c2nc(N3CCOCC3)c3sc(CN(C)c4ncc(C(=O)NO)cn4)cc3n2)cn1`, the AC50 in test [1] (setting [7]) is 459 nM [falling, full curve, poor fit]; in test [2] (setting [5]), 138 nM [falling, full curve]; in test [2] (measured here: PEO4 viability) it was 61.6 nM [falling, full curve]; in test [3] (setting [8]), 14.8 nM [falling, full curve]; in test [3] (setting [9]), 20.9 nM [falling, full curve].
Turning to `O=C(/C=C\n1cnc(-c2cc(C(F)(F)F)cc(C(F)(F)F)c2)n1)NNc1cnccn1`, the AC50 in test [1] (setting [6]) is 29000 nM [falling, single point]; in test [1] (setting [7]), 7.3 nM [falling, full curve, poor fit]; in test [1] (setting [4]) it was 36500 nM [falling, single point]; in test [2] (setting [5]) it was 49 nM [falling, full curve]; in test [2] (measured here: PEO4 viability), 49 nM [falling, full curve].
As to `Cc1cc(OCc2nnc(SC3CCCC3)n2-c2cccnc2)ccc1-c1ccc(S(C)(=O)=O)cc1`, the concentration at half-maximal activity (AC50) in test [1] (setting [4]) is 8160 nM [falling, partial curve, poor fit]; in test [2] (setting [5]), 38.9 nM [falling, full curve]; in test [2] (measured here: PEO4 viability), 195 nM [falling, full curve, poor fit].
Turning to `CS(=O)(=O)c1ccc(-c2nnc(/C=C/c3nnc(-c4ccc(C#N)cc4)o3)n2-c2ccccc2Cl)nc1`, the AC50 in test [1] (setting [4]) is 1150 nM [rising, partial curve, poor fit]; in test [2] (measured here: PEO4 viability), 15500 nM [falling, single point].
Regarding `CCC[C@H](NC(=O)/C(C#N)=C/c1cccc(Br)n1)c1ccccc1`, the AC50 in test [1] (setting [6]) was 2580 nM [falling, partial curve, poor fit]; in test [1] (setting [4]), 14500 nM [falling, single point]; in test [2] (setting [5]), 4900 nM [falling, full curve]; in test [2] (measured here: PEO4 viability), 3090 nM [falling, full curve].
Turning to `Cc1ccc2c(=O)c3cccc(CC(=O)O)c3oc2c1C`, the AC50 in test [1] (setting [4]) was 91.6 nM [falling, full curve, poor fit]; in test [2] (measured here: PEO4 viability), 245 nM [rising, partial curve, poor fit]; in test [3] (setting [9]) it was 26400 nM [falling, single point]. For the same compound, the values for the z-score in test [3] (setting [10]), in test [3] (setting [11]) and in test [3] (setting [12]) were 0.829, -2.01 and 0.672, respectively.
On to `Nc1nc(=S)c2[nH]cnc2[nH]1`, for which the AC50 in test [1] (setting [6]) is 18300 nM [falling, partial curve, poor fit]; in test [2] (setting [5]) it was 1100 nM [falling, full curve]; in test [2] (measured here: PEO4 viability) it was 347 nM [falling, full curve]; in test [3] (setting [8]), 833 nM [falling, full curve]; in test [3] (setting [9]), 2640 nM [falling, full curve]. Also, the z-score in test [3] (setting [10]) was 0.0287; in test [3] (setting [11]), -1.11; in test [3] (setting [12]), -0.627.
For the compound `CCCCCN(C)CCC(O)(P(=O)(O)O)P(=O)(O)O`, the AC50 was 4090 nM [rising, single point] in test [1] (setting [7]) and 138 nM [rising, partial curve, poor fit] in test [2] (setting [5]).

The values are drawn from PubChem BioAssay (NCATS).
